Test results from patent US10556872B2, “Fatty acid synthase inhibitors and methods of use” (Hampton University, priority 2017, dated 2020).
At least one structure is not confirmed: it was looked up by name or label, or the drawing left a doubt.

Experiments:
Type in all cases: cell-based
[1] = system: H460 lung cancer cells; test: MTT assay, cell viability of H460 lung cancer cells
Experimental: (§1) Antiproliferative effect of FAS inhibitors on MCF-7 cells was determined by performing MTT assay. Roughly, 10,000 cells per well were plated in 96-well cell culture microplate (Costar, USA) and incubated overnight in full media (DMEM containing 10% FBS) for cells to adhere to the plate. Cells were then treated with various concentrations of inhibitors and vehicle for 24 hrs in serum free media. Cell viability was evaluated by the MTT (Sigma-Aldrich, St. Louis, Mont.) assay. The absorbance of solubilized formazan was read at 570 nm using ELISA reader (Bio-TEK, Synergy-1).
(§2) We treated H460 lung cancer cells, MDA-MB-231 breast cancer cells, and PC-3 prostate cancer cells with the FAS inhibitor, Compound 1A.

[2] = system: MDA-MB-231 breast cancer cells; test: MTT assay, cell viability of MDA-MB-231 breast cancer cells; settings: MDA-MB-231 cells
Experimental: as §1, §2

[3] = system: PC-3 prostate cancer cells; test: MTT assay, cell viability of PC-3 prostate cancer cells; settings: PC-3 cells
Experimental: as §1, with “Cells were then treated with various concentrations of inhibitors and vehicle for 24 hrs in serum free media.” left out
as §2

Measured: anticancer effect (MTT assay), fragment alone

CCCCCCCCCCCCCCCC(=O)O [palmitate]
no anticancer effect: all assays above
